Taken from: PubChem BioAssay AID686943 (Drosophila RNAi Screening Center, 2013)
Screen: 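Knockdowns that increase or decrease active ERK after insulin receptor stimulation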 (primary screen). System: Drosophila S2R+ haemocyte-like cells expressing YFP-tagged ERK (Rolled). Reagents: long dsRNA against Drosophila genes. Treatment: insulin stimulation versus unstimulated cells; dose and duration not given. Measurement: 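Antibody staining for doubly phosphorylated ERK divided by ERK-YFP signal, as plate z-scores, in insulin-treated and untreated cells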. Direction: replicate 1, z-score of dpERK with insulin and replicate 2, z-score of dpERK with insulin: higher = more active ERK per ERK-YFP after insulin; replicate 1, z-score of dpERK under basal conditions: higher = more basal active ERK per ERK-YFP; replicate 1, z-score of ERK-YFP with insulin: higher = more YFP-tagged ERK signal.
The deposit covers about 23,000 reagents; this is a random part of those with a known target gene and a result. 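Extra replicates exist only for a retested subset of genes; insulin dose and duration not given; both raised and lowered dpERK matter.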 Names joined by + are all predicted targets of the reagent. No sequences are given here. The record does not give: the amount of reagent, the time to read-out.

| gene | dsRNA | replicate 1, z-score of dpERK with insulin | replicate 2, z-score of dpERK with insulin | replicate 1, z-score of dpERK under basal conditions | replicate 1, z-score of ERK-YFP with insulin |
| --- | --- | --- | --- | --- | --- |
| CG18747 | DRSC15384 | 0.02 | 0.1 | -0.25 | 0.2 |
| CG42331 | DRSC14633 | -0.93 | 0.36 | -0.64 | -0.5 |
| CG42331 | DRSC16126 | 0.67 | 0.47 | 0.89 | 0.12 |
| Aldh-III | DRSC06047 | 0.52 | 0.05 | -0.4 | 0.57 |
| CG30471 | DRSC07096 | 0.29 | 1.02 | -0.07 | 0.87 |
| Tom40 | DRSC18796 | -0.44 | 0.33 | -0.78 | 1.37 |
| CG12923 | DRSC06237 | 0.32 | 0.81 | 0.4 | -0.19 |
| mRpL30 | DRSC18416 | -0.73 | -0.34 | -0.88 | 0.42 |
| Cenp-C | DRSC14371 | 0.18 | -0.2 | -1.96 | -1.26 |
| CG1792 | DRSC15290 | -0.1 | 0.42 | 0.72 | 0.22 |
| CG15564 | DRSC15102 | -0.8 | -0.05 | 1.35 | 0.35 |
| CG14411 | DRSC19597 | -0.27 | -0.24 | 0.51 | 0.88 |
| CG13313 | DRSC09984 | -0.87 | -0.07 | -0.06 | 0.8 |
| CG9308 | DRSC04539 | 0.04 | -0.12 | 0.37 | 0.37 |
| CG3430 | DRSC02713 | -0.16 | 0.01 | -0.31 | -0.82 |
| Hap40 | DRSC20085 | 1.16 | 0.71 | 0.16 | -0.25 |
| CG14974 | DRSC08433 | -1.47 | -1.54 | -0.33 | 1.08 |
| Arl8 | DRSC16334 | 0.02 | -1.44 | -0.59 | -0.9 |
| klu | DRSC11357 | -0.25 | 0.19 | -0.46 | -0.48 |
| Lip3 | DRSC16727 | 0.2 | 0.24 | -2.38 | -0.22 |
| Pgant6 | DRSC08552 | -0.96 | -0.45 | -0.23 | -0.15 |
| CR10102 | DRSC05963 | -0.96 | -2.34 | -1.25 | 1.54 |
| CG31915 | DRSC03000 | 0.59 | 0.51 | -1.14 | 0.04 |
| lncRNA:roX1 | DRSC21884 | 0.6 | 0.55 | -0.43 | -0.83 |
| bic | DRSC07584 | 1.32 | 0.89 | -0.71 | -0.33 |
| CG32111 (retired record) | DRSC09203 | 0.12 | -0.23 | 0.89 | 0.29 |
| RpL22 | DRSC18707 | 0.77 | 2.87 | -0.99 | 0.08 |
| RpL22 | DRSC22819 | 0.4 | -0.26 | 5.47 | -4.54 |
| papi | DRSC00693 | -0.58 | -0.83 | -0.61 | 1.23 |
| Fer1HCH | DRSC16671 | 0.31 | -0.27 | 1.18 | 0.68 |
| MstProx + Mst84Da | DRSC12597 | -0.57 | -0.38 | -1.77 | 0.93 |
| CG6983 | DRSC10757 | -0.2 | 0.47 | 0.72 | 0.59 |
| CG34323 | DRSC18916 | 0.16 | 0.22 | 0.95 | 0.14 |
| CG3434 | DRSC10365 | 0.1 | -0.39 | -0.08 | 0.53 |
| Vha68-3 | DRSC02809 | 0.41 | 0.31 | -0.54 | 0.5 |
| pita | DRSC04006 | -1.13 | -0.67 | -0.32 | 0.42 |
| pita | DRSC04435 | 0.48 | -0.31 | 0.47 | 0.09 |
| CG43902 | DRSC17850 | 0.26 | 0.57 | 0.34 | 0.08 |
| CG43902 | DRSC17999 | -2.49 | -2.73 | 1.3 | 0.22 |
| CG7810 | DRSC03072 | 0.06 | 0.42 | -0.46 | -0.06 |
| trx | DRSC17089 | -0.87 | -0.01 | 0.19 | 0.21 |
| LysE | DRSC08675 | 0.96 | 0.78 | 0.64 | 0.21 |
| Setx | DRSC10859 | 0.36 | 3.19 | 0.51 | -0.42 |
| atlas | DRSC04183 | 0.14 | 1.16 | 5.09 | 1.65 |
| CG13575 | DRSC04211 | 0.64 | 0.89 | 0.06 | -0.27 |
| CG13575 | DRSC22851 | 0.79 | 0.82 | 0.39 | 0.72 |
| pippin | DRSC04489 | 0.29 | 0.6 | -0.63 | 0.34 |
| sut4 | DRSC07703 | 0.1 | -0.14 | -0.66 | 0.09 |
| MetRS | DRSC22533 | -0.32 | 0.89 | 0.2 | 1.35 |
| CG11381 | DRSC17780 | -1.08 | -2.14 | 1.17 | 0.35 |
| alpha-Est10 | DRSC12613 | 0.88 | 0.92 | -1.67 | -1.09 |
| CG15922 | DRSC15128 | 0.15 | -0.57 | -0.06 | 0.16 |
| Or98a | DRSC16774 | -0.04 | 0 | -0.31 | 0.11 |
| Snx3 | DRSC16027 | 0.25 | -0.14 | -0.36 | -0.08 |
| CG42869 + Sfp93F | DRSC13505 | -0.3 | 0.87 | -0.18 | -0.3 |
| Gr28b | DRSC02291 | 0 | 0.73 | -0.7 | -0.66 |
| Gr28b | DRSC02292 | -0.13 | 0.78 | 0.56 | -0.99 |
| Mid1 | DRSC04230 | -0.68 | -1.51 | 0.52 | -0.32 |
| Mid1 | DRSC04231 | 0.58 | -0.28 | 0.89 | 0.08 |
| Mid1 | DRSC04308 | 1.04 | 0.51 | 0.38 | 0.28 |
| Mid1 | DRSC22773 | 0.55 | 0.73 | -0.6 | -0.21 |
| Mid1 | DRSC22803 | 0.5 | 0.28 | -0.69 | -0.04 |
| Rip11 | DRSC20000 | 0.16 | 0.24 | -0.1 | 0.05 |
| sqz | DRSC16980 | 0.43 | 0.45 | 1.08 | -0.57 |
| CCAP-R | DRSC14891 | 1.05 | 0.17 | 0.59 | 0.08 |
| CCAP-R | DRSC15967 | 0.57 | -0.03 | -1.02 | -0.12 |
| CG12355 | DRSC09381 | -0.44 | -0.18 | -0.35 | 0.36 |
| CG12355 | DRSC09883 | -0.55 | 0 | -0.53 | 0.15 |
| Gdh | DRSC16679 | 0.61 | -0.41 | 1.77 | -2.11 |
| crm | DRSC18754 | -0.08 | 0.58 | -0.1 | -0.09 |
| CG3552 | DRSC10370 | -0.38 | -0.64 | -0.05 | 0.18 |
| CG8141 | DRSC16387 | 0.59 | 0.99 | 0.68 | 0.38 |
| CG7514 | DRSC08597 | -0.15 | 0.61 | 1.02 | -0.12 |

In a second layout: results already given
{"gene":"mRpL30","dsRNA":"DRSC18416","replicate 1, z-score of dpERK with insulin":-0.73,"replicate 2, z-score of dpERK with insulin":-0.34,"replicate 1, z-score of dpERK under basal conditions":-0.88,"replicate 1, z-score of ERK-YFP with insulin":0.42}
{"gene":"Cenp-C","dsRNA":"DRSC14371","replicate 1, z-score of dpERK with insulin":0.18,"replicate 2, z-score of dpERK with insulin":-0.2,"replicate 1, z-score of dpERK under basal conditions":-1.96,"replicate 1, z-score of ERK-YFP with insulin":-1.26}
{"gene":"CG1792","dsRNA":"DRSC15290","replicate 1, z-score of dpERK with insulin":-0.1,"replicate 2, z-score of dpERK with insulin":0.42,"replicate 1, z-score of dpERK under basal conditions":0.72,"replicate 1, z-score of ERK-YFP with insulin":0.22}
{"gene":"CG15564","dsRNA":"DRSC15102","replicate 1, z-score of dpERK with insulin":-0.8,"replicate 2, z-score of dpERK with insulin":-0.05,"replicate 1, z-score of dpERK under basal conditions":1.35,"replicate 1, z-score of ERK-YFP with insulin":0.35}
{"gene":"CG14411","dsRNA":"DRSC19597","replicate 1, z-score of dpERK with insulin":-0.27,"replicate 2, z-score of dpERK with insulin":-0.24,"replicate 1, z-score of dpERK under basal conditions":0.51,"replicate 1, z-score of ERK-YFP with insulin":0.88}
{"gene":"CG13313","dsRNA":"DRSC09984","replicate 1, z-score of dpERK with insulin":-0.87,"replicate 2, z-score of dpERK with insulin":-0.07,"replicate 1, z-score of dpERK under basal conditions":-0.06,"replicate 1, z-score of ERK-YFP with insulin":0.8}
{"gene":"CG9308","dsRNA":"DRSC04539","replicate 1, z-score of dpERK with insulin":0.04,"replicate 2, z-score of dpERK with insulin":-0.12,"replicate 1, z-score of dpERK under basal conditions":0.37,"replicate 1, z-score of ERK-YFP with insulin":0.37}
{"gene":"CG3430","dsRNA":"DRSC02713","replicate 1, z-score of dpERK with insulin":-0.16,"replicate 2, z-score of dpERK with insulin":0.01,"replicate 1, z-score of dpERK under basal conditions":-0.31,"replicate 1, z-score of ERK-YFP with insulin":-0.82}
